Drawing on article PMC10833457, this text covers binding for one molecule.

These are yes or no findings as the source states them, for the method shown. Binding seen in cells or lysates may run through a third protein. Some results given as binding are weak or reduced against the parent protein; the word gives no strength.

In the assay the target is T1, YTHDF1 (mouse (endogenous in mPFC)), P59326.
T1 chain: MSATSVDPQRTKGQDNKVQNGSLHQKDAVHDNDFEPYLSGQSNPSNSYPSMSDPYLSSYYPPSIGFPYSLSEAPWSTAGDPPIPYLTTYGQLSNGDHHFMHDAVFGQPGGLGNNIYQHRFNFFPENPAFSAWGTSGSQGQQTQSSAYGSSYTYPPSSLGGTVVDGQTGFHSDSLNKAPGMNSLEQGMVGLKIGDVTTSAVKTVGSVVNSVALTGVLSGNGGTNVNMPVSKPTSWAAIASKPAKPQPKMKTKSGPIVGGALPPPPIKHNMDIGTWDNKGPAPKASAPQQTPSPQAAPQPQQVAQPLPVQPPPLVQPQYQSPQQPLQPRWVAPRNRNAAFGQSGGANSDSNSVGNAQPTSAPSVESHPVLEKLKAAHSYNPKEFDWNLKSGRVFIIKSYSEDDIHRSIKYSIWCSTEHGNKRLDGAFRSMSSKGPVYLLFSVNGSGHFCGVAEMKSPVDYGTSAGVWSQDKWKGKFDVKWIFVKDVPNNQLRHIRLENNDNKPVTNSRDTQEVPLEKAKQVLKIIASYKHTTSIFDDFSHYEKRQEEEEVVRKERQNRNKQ
The experiment in a line: co-IP; mPFC homogenates from 22-month-old mice; immunoprecipitation with an anti-YTHDF1 or an anti-YTHDF2 antibody, detection with anti-YTHDF1 and anti-YTHDF2 antibodies. To be noted: remark: other sources report otherwise.

B1: YTHDF2, Q91YT7 1-579 (protein)
chain: MSASSLLEQRPKGQGNKVQNGSVHQKDGLNDDDFEPYLSPQARPNNAYTAMSDSYLPSYYSPSIGFSYSLGEAAWSTGGDTAMPYLTSYGQLSNGEPHFLPDAMFGQPGALGSTPFLGQHGFNFFPSGIDFSAWGNNSSQGQSTQSSGYSSNYAYAPSSLGGAMIDGQSAFANETLNKAPGMNTIDQGMAALKLGSTEVASSVPKVVGSAVGSGSITSNIVASSSLPPATIAPPKPASWADIASKPAKQQPKLKTKNGIAGSSLPPPPIKHNMDIGTWDNKGPVAKAPSQALVQNIGQPTQGSPQPVGQQANNSPPVAQASVGQQTQPLPPPPPQPAQLSVQQQAAQPTRWVAPRNRGSGFGHNGVDGNGVGQSQAGSGSTPSEPHPVLEKLRSINNYNPKDFDWNLKHGRVFIIKSYSEDDIHRSIKYNIWCSTEHGNKRLDAAYRSMNGKGPVYLLFSVNGSGHFCGVAEMKSAVDYNTCAGVWSQDKWKGRFDVRWIFVKDVPNSQLRHIRLENNENKPVTNSRDTQEVPLEKAKQVLKIIASYKHTTSIFDDFSHYEKRQEEEESVKKERQGRGK
Turning to B1, the binding entry is on record as “binds”.
